# Assay results from patent US11008605.
# Chains of the proteins cited; added tags and fusions are not shown. Lines headed by an entry give the natural chain unless they say otherwise; changes in a name come on top.
# UniProt Q5T8I9: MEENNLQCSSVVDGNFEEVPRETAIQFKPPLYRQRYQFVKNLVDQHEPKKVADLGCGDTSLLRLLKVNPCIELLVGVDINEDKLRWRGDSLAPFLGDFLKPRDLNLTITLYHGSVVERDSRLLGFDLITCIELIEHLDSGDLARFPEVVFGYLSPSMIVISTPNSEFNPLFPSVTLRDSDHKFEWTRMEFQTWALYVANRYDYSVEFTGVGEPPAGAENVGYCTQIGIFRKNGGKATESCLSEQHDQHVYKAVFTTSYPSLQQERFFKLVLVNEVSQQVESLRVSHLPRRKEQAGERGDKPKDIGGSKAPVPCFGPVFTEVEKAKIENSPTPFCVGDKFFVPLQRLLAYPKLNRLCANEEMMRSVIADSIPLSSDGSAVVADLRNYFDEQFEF
# For part of these data: Protein sequences can lack the tags named with them.
# What was measured:
# [1] = target: T1, Dm-piRMT (ssRNA 2'-O-methyltransferase) (Drosophila melanogaster) (UniProt Q7K175); test: activity assay; details: purified recombinant protein
# T1 sequence (limits assumed): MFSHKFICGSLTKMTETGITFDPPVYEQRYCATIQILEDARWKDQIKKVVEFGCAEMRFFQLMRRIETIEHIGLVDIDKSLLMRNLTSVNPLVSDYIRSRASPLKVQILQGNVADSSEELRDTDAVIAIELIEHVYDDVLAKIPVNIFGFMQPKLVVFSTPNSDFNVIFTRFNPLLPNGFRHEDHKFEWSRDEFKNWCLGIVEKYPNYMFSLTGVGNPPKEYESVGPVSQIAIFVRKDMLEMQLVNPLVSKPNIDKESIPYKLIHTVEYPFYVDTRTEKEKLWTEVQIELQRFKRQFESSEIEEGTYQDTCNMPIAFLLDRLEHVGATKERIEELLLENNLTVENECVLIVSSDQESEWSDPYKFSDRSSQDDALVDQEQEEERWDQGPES
# [2] = target: Hs-piRMT (ssRNA 2'-O-methyltransferase) (Homo sapiens) (UniProt Q5T8I9); test: activity assay; details: 3' methylation by NaIO4/beta-elimination and PAGE; 10 mM Co2+ or Co3+ required, AdoMet, pH 7.4, 37 C; also Ado-6-amine and Ado-6-azide; purified recombinant protein; label: 32P
Sequence,"activity on this sequence ([1]; Co2+, 37 C, AdoMet or synthetic cofactors)",activity on this sequence [2],"activity on this sequence ([1]; 3' methylation by NaIO4/beta-elimination and PAGE, 10 mM Co2+ or Co3+ required, AdoMet, pH 7.4, 37 C, also Ado-6-amine, Ado-6-azide, Ado-biotin, label: 32P)"
UUAACGCUUGCAGAGAGAAUCAC [siR173.1],active,,
UUCGCUUGCAGAGAGAAAUCAC [miR173.1],,active,active
